# Screening data, single-dose tests

Results are given as percent effect.
The controls that fix the scale are not given in the record; negative values are as filed.
This is an unselected part of the compounds tested.

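Whole-parasite assay of Trypanosoma brucei over 72 hours; the read-out is not stated. Concentration: 30 µM. Higher reads as stronger inhibition (inferred: compounds with an IC50 in retests scored well above the rest). Values scatter widely below zero; nearly all retest evidence comes from the higher of the two concentrations used. Size under these conditions: about 64,000 compounds, about 940 of them at 50% or above in at least one test.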

| Compound | effect |
|---|---|
| `CN(C)C(=O)N1CC2(CCNCC2)c2cc(F)ccc21.O=C(O)C(F)(F)F` | -12.2% |
| `COc1ccc2c(=O)n(CC3CC3)ccc2c1OC` | -22.93% |
| `COc1ccc(CNCCc2cccc(C(N)=O)c2)cc1O` | -37.85% |
| `Cc1cccc(C(C(=O)N2CCN(C(=O)c3ccc[nH]3)CC2)N(C)C)c1` (stereo not given) | -9.318% |
| `CCN(C(=O)CN1CCC(c2cc3ccccc3[nH]2)CC1)C1CC1` | -53.14% |
| `Cc1nc(CN2CCC3(CC2)NC(=O)CC3c2ccccc2)cs1.O=C(O)C(F)(F)F` (stereo not given) | 10.42% |
| `CCC(O)CN1CCN(C(=O)c2ccnc(N(C)C)c2)CC1` (stereo not given) | 12.57% |
| `CC(C)NC(=O)[C@@H]1C[C@@H](N)CN1C(=O)CCSCc1ccccc1` | -5.665% |
| `CNC(=O)[C@@H]1C[C@@H](NC(=O)Cc2cccs2)CN1C1CCOCC1` | -30.24% |
| `COc1ccc2cccc(CC(=O)NCc3nccc(N)n3)c2c1` | -27.01% |
| `CN1C(=O)CCC12CCCN(C(=O)c1ccncc1F)C2.O=C(O)C(F)(F)F` (stereo not given) | 5.464% |
| `COCCn1cncc1CN1CCC(C(C)=O)(c2ccccc2)CC1` | -27.69% |
| `Cc1ccc(C(=O)O)cc1S(=O)(=O)N(CC(C)O)c1ccccc1` (stereo not given) | -25.09% |
| `C[C@]1(O)CN(Cc2ncccc2F)CC[C@@H]1Oc1cccc(F)c1` | -7.731% |
| `CCCN(C(=O)c1cccnc1)c1nc2c(s1)CCc1c-2cnn1C` | 48.91% |
| `COc1ccccc1C1(CNc2ccnc(C(=O)N(C)C)c2)CC1` | 98.99% |
| `COCCN1CCN(CC2CCCCO2)CC1` (stereo not given) | -9.635% |
| `COc1ccc(NC(=O)CN2CCCCC2C2OCCO2)cc1` (stereo not given) | -11.93% |
| `[H][C@@]12CCN(C(=O)Cc3ccc(O)cc3)C[C@]1([H])[C@@H](c1ccccc1)CN2C` | 31.15% |
| `CC(C)N1CCc2[nH]nc(C(=O)N3CCCC3C)c2C1` (stereo not given) | -16.72% |
| `CN1CCN(C2COC3(CCN(Cc4cccs4)CC3)C2)CC1.O=C(O)C(F)(F)F.O=C(O)C(F)(F)F` (stereo not given) | -470.3% |
| `CC(C)CNC(=O)CN(Cc1ccc(F)cc1)S(C)(=O)=O` | -20.12% |
| `CCc1ccc2nc(C)cc(C(=O)N[C@@H]3C[C@@H](CO)N(C)C3)c2c1` | -3.013% |
| `CCC(=O)NCC1(O)CCC(C(C)(C)C)CC1` (stereo not given) | -16.6% |
| `CC(C)CCN1CCc2nc(N3CCOCC3)nc(NC(C)C)c2C1` | 99.5% |
| `O=C(O)C(F)(F)F.[H][C@@]12COC[C@]1(COCC(=O)N(C)C)CN(Cc1ccccc1)C2` | -79.79% |
| `CCOc1ccc(CN[C@@H]2COC[C@H]2c2ccc(F)cc2)cc1.O=C(O)CC(O)(CC(=O)O)C(=O)O` | -47.65% |
| `CN1Cc2c(C(=O)Nc3cccnc3)ncn2-c2ccccc2S1(=O)=O.O=C(O)C(F)(F)F` | -8.395% |
| `COCCn1ccc(=O)c(OCC(=O)Nc2ccccc2)c1C` | 45.56% |
| `COCC1CC2(CCN(C(=O)c3ccc(OC)c(Cl)c3)CC2)CO1` (stereo not given) | -6.719% |
| `CCOC(=O)N1CCC(NC(C)Cc2cc(C)n[nH]2)CC1` (stereo not given) | 32.78% |
| `Cc1nc(O)cc(CN2CC=C(c3cnn(-c4ccccc4)c3)CC2)n1` | -55.66% |
| `Cc1cc(CNC(=O)Nc2cccc(COCCOC(C)C)c2)no1` | -22.46% |
| `CN(CCc1ccccn1)C(=O)CCC1CCCN(S(C)(=O)=O)C1` (stereo not given) | -8.079% |
| `COc1ccc(C2CC(=O)Oc3cc(C)[nH]c(=O)c32)cc1O` (stereo not given) | -18.29% |
| `CC(=O)N1CCC(N2CCOC[C@H]2c2nc(-c3ccncc3)c[nH]2)CC1` | -5.906% |
| `CC(=O)N1CC(C(=O)N2CCCC(Cn3ccnc3C)C2)C1` (stereo not given) | 1.144% |
| `CCOCC1CN(C(=O)[C@H]2CCCO2)Cc2nnn(CC3CC3)c21` (stereo not given in full) | -68.52% |
| `COCCCNC(=O)Nc1cccc2ncccc12` | -14.24% |
| `[H][C@@]12CN(Cc3csc(C)n3)C[C@]1([H])OCCN2c1ncc(F)cn1` | -20.7% |
| `CN(CCc1ccccc1)Cc1nc2c(cnn2C)c(=O)[nH]1` | 14.03% |
| `Cc1cccc(CN2CCC3(CCCN(C(=O)NC(C)C)C3)C2=O)n1.O=C(O)C(F)(F)F` (stereo not given) | -19.73% |
| `Cn1ccnc1SCCNC(=O)CC1CCc2ccccc21` (stereo not given) | -44.2% |
| `CNC(=O)CCc1cc(C2CCCN2C(=O)CO)nc(C)n1` (stereo not given) | -10.97% |
| `CCCn1nc(C)c(CNC(=O)c2snnc2C)c1C` | -1.959% |
| `CC/C=C(/C)C(=O)N1CCN(C2=NCC(C)S2)CC1` (stereo not given) | 2.888% |
| `Cc1nonc1CC(=O)N1CCC2(CCCN(C3CCOCC3)C2=O)C1` (stereo not given) | -39.84% |
| `NC(=O)C1CCCN(Cc2c(-c3ccco3)[nH]c3ncccc23)C1` (stereo not given) | 10.34% |
| `CCCc1nnc(N2CCC3(CC2)CN(C)C(=O)O3)o1` | -13.78% |

3 of the entries, repeated:

{"compound": "CC(C)NC(=O)[C@@H]1C[C@@H](N)CN1C(=O)CCSCc1ccccc1", "effect": -5.665}
{"compound": "CCN(C(=O)CN1CCC(c2cc3ccccc3[nH]2)CC1)C1CC1", "effect": -53.14}
{"compound": "CCC(=O)NCC1(O)CCC(C(C)(C)C)CC1", "stereo": "stereo not given", "effect": -16.6}

Measurements from “University of Dundee, Small-Polar-MMV Screening Library” (2021), ChEMBL document CHEMBL3988442.